Reference: the supplement of paper PMC12067093, “Discovery and optimisation of a covalent ligand for TRIM25 and its application to targeted protein ubiquitination” (Chemical Science, 2025)
This is one part of the list.

Compound: Cc1cc(ccc1-c1ccccc1)C(=O)N1CCCN(CC1)C(=O)CCl [compound 10]
Assay: probe-labelled cysteine peptide fold change vs DMSO (competition) (log2 fold change); higher = less target engagement (more negative = stronger competition)
Details: THP-1, incubation time: 4 h
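Further: competitive profiling in live THP-1 cells: cysteine peptides tagged with an iodoacetamide desthiobiotin (IA-DTB) probe, intensity after compound treatment relative to DMSO-treated cells.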

Target | probe-labelled cysteine peptide fold change (10 µM) | probe-labelled cysteine peptide fold change (50 µM)
HCK_P08631_395_AANILVSASLVCK (UniProt P08631) | 0.0556 | 0.0105
HERC2_O95714_3193_GGSEGCNIPQNIER (UniProt O95714) | 0.0332 | 0.0875
HDAC9_Q9UKV0_353_CETQTLR (UniProt Q9UKV0) | -0.0966 | -0.208
HECTD1_Q9ULT8_1389_KGSSSSVCSVASSSDISLGSTK (UniProt Q9ULT8) | -0.299 | 0.00682
HDAC10_Q969S8_102_ETQVLGKEELQALSGQFDAIYFHPSTFHCAR (UniProt Q969S8) | 0.446 | 0.128
HERC1_Q15751_1941_CSSGIPLVGNLR (UniProt Q15751) | -0.231 | -0.896
HDAC1_Q13547_12_VCYYYDGDVGNYYYGQGHPMKPHR (UniProt Q13547) | -0.104 | -0.414
HK1_P19367_886_CNVSFLLSEDGSGK (UniProt P19367) | 0.132 | 0.0813
HDLBP_Q00341_683_SIMEECGGVHIHFPVEGSGSDTVVIR (UniProt Q00341) | 0.111 | 0.13
HECTD4_Q9Y4D8-5_230_ENAAAALVALACAR (UniProt Q9Y4D8) | 0.183 | 0.102
HMGCL_P35914_307_LLEAGNFICQALNR (UniProt P35914) | -0.0228 | 0.406
HLTF_Q14527_896_RVESIQCFQNTEAGSPTIMLLSLK (UniProt Q14527) | -0.00412 | -0.00533
HLCS_P50747_375_EILTTLGLSCDMK (UniProt P50747) | -0.0627 | -0.0933
HERC4_Q5GLZ8_58+60_HTVFVLDDGTVYTCGCNDLGQLGHEK (UniProt Q5GLZ8) | -0.0133 | -1.05
HIF1AN_Q9NWT6_236_CILFPPDQFECLYPYPVHHPCDR (UniProt Q9NWT6) | 0.0984 | -0.0127
HK2_P52789_133_GSGTQLFDHIAECLANFMDK (UniProt P52789) | 0.194 | 0.635
HMBS_P08397_261_HLEGGCSVPVAVHTAMK (UniProt P08397) | -0.0518 | -0.324
HDAC5_Q9UQL6_982_CFGHLTR (UniProt Q9UQL6) | 0.138 | -0.104
HEATR3_Q7Z4Q2_655_GNYSTDQLCVLDNVK (UniProt Q7Z4Q2) | -0.314 | 0.137

A section from further up:
Target | probe-labelled cysteine peptide fold change (10 µM) | probe-labelled cysteine peptide fold change (50 µM)
HLCS_P50747_375_EILTTLGLSCDMK (UniProt P50747) | -0.0627 | -0.0933
HERC4_Q5GLZ8_58+60_HTVFVLDDGTVYTCGCNDLGQLGHEK (UniProt Q5GLZ8) | -0.0133 | -1.05

(continued)

Target | probe-labelled cysteine peptide fold change (10 µM) | probe-labelled cysteine peptide fold change (50 µM)
HELB_Q8NG08_379_KPPWHLCVDVEK (UniProt Q8NG08) | -0.038 | -0.303
HMGCS1_Q01581_224_LSIQCYLSALDR (UniProt Q01581) | -0.0461 | 0.0606
HELLS_Q9NRZ9_169_ENEDENSSSTNLCVEDLQK (UniProt Q9NRZ9) | -0.162 | 0.0229
HLTF_Q14527_780_LILSSGSDEECAICLDSLTVPVITHCAHVFCK (UniProt Q14527) | 0.357 | 0.633
HEATR6_Q6AI08_846_ALGVYVLFPCLR (UniProt Q6AI08) | -0.729 | 0.0143
HCK_P08631_234_GNDGLCQK (UniProt P08631) | -0.166 | -0.0705
HK1_P19367_834_AAQLCGAGMAAVVDK (UniProt P19367) | 0.0935 | 0.0681
HEATR3_Q7Z4Q2_464_KMNTIQCR (UniProt Q7Z4Q2) | 0.0854 | -0.48
HDAC6_Q9UBN7_407_ALAEGVSASLHTLLGDPCPMLESPGAPCR (UniProt Q9UBN7) | 0.0324 | -0.19
HEATR3_Q7Z4Q2_171+173_NSIENIANETVNVLWNICECSSR (UniProt Q7Z4Q2) | 0.521 | -0.204
HIGD2A_Q9BW72_53_ENPVVPIGCLATAAALTYGLYSFHR (UniProt Q9BW72) | 0.152 | 0.0259
HELZ_P42694_696_ILICTHSNSAADLYIK (UniProt P42694) | 0.272 | 0.506
HGH1_Q9BTY7_368_GMENLLEVQVPEDVEQQLQQLDCR (UniProt Q9BTY7) | -0.0213 | -0.302
HINT1_P49773_84_CAADLGLNK (UniProt P49773) | -0.0612 | 0.0208
HDLBP_Q00341_878_RIQEIIEDLEAQVTLECAIPQK (UniProt Q00341) | 0.0241 | 0.132
HEATR1_Q9H583_631_SGICSLHPLLR (UniProt Q9H583) | 0.22 | 0.231
HDAC3_O15379_279_GHGECVEYVK (UniProt O15379) | 0.0141 | 0.228
HDAC4_P56524_669_HQCTCGSSSSHPEHAGR (UniProt P56524) | 0.232 | 0.528
